# Measurements as given in ChEMBL document CHEMBL1123045, “Synthesis of high specific activity [75Br]- and [77Br]bromperidol and tissue distribution studies in the rat” (J Med Chem, 1985).
# The source gives many values for each of these; only a part stands here.
# Assays:
# Type in all cases: ADME, organism-based
# Details in all cases: in vivo
# [1] = test system: Rattus norvegicus; experiment: Distribution in brain of rat, 6 hr after intravenous administered, injected dose/gm
# [2] = test system: Rattus norvegicus; experiment: Distribution in rat liver 8 hr after intravenous administration, injected dose/gm
# [3] = test system: Rattus norvegicus; experiment: Distribution in rat spleen 1 hr after intravenous administration, injected dose/gm
# [4] = test system: Rattus norvegicus; experiment: Distribution in rat uterus 1 hr after intravenous administration, injected dose/gm
smiles,measurement,setting,value
O=C(CCCN1CCC(O)(c2ccc(Br)cc2)CC1)c1ccc(F)cc1 [BROMPERIDOL],Distribution,[1],1.58%
same,Distribution,[2],4.33%
same,Distribution,[3],2.6%
same,Distribution,[4],1.21%
